At least one read-out could not be matched to a standard name with certainty.
How the values were obtained:
MCF7 = experiment: panel of 60 human tumor cell lines, growth inhibition (Breast Cancer)
NCI/ADR-RES = experiment: panel of 60 human tumor cell lines, growth inhibition (Ovarian Cancer)
U251 = experiment: panel of 60 human tumor cell lines, growth inhibition (CNS Cancer)
OVCAR-8 = experiment: panel of 60 human tumor cell lines, growth inhibition (Ovarian Cancer)
MDA-MB-435 = experiment: panel of 60 human tumor cell lines, growth inhibition (Melanoma)
NCI-H522 = experiment: panel of 60 human tumor cell lines, growth inhibition (Non-Small Cell Lung Cancer)
DU-145 = experiment: panel of 60 human tumor cell lines, growth inhibition (Prostate Cancer)
SW-620 = experiment: panel of 60 human tumor cell lines, growth inhibition (Colon Cancer)
MOLT-4 = experiment: panel of 60 human tumor cell lines, growth inhibition (Leukemia)
UACC-62 = experiment: panel of 60 human tumor cell lines, growth inhibition (Melanoma)
NCI-H460 = experiment: panel of 60 human tumor cell lines, growth inhibition (Non-Small Cell Lung Cancer)
BT-549 = experiment: panel of 60 human tumor cell lines, growth inhibition (Breast Cancer); details: BT-549
HOP-92 = experiment: panel of 60 human tumor cell lines, growth inhibition (Non-Small Cell Lung Cancer)
NCI-H23 = experiment: as above
NCI-H226 = experiment: as above
OVCAR-4 = experiment: panel of 60 human tumor cell lines, growth inhibition (Ovarian Cancer); assay type: cell-based
ACHN = experiment: panel of 60 human tumor cell lines, growth inhibition (Renal Cancer)
HCT-15 = experiment: panel of 60 human tumor cell lines, growth inhibition (Colon Cancer)
CAKI-1 = experiment: panel of 60 human tumor cell lines, growth inhibition (Renal Cancer)
IGROV1 = experiment: panel of 60 human tumor cell lines, growth inhibition (Ovarian Cancer); details: IGROV1
SK-OV-3 = experiment: as above

Compound: C=C1C(=O)O[C@H]2[C@H]1CC/C(COC(=O)OC)=C\CC[C@@]1(C)O[C@@H]21 [JVM 2-40]
- Percent Growth (MCF7; Log10 Concentration −4.0): −75%
- Percent Growth (MCF7; Log10 Concentration −5.0): 7%
- Percent Growth (MCF7; Log10 Concentration −6.0): 74%
- Percent Growth (MCF7; Log10 Concentration −7.0): 81%
- Percent Growth (MCF7; Log10 Concentration −8.0): 89%
- Percent Growth (NCI/ADR-RES; Log10 Concentration −4.0): −34%
- Percent Growth (NCI/ADR-RES; Log10 Concentration −5.0): 76%
- Percent Growth (NCI/ADR-RES; Log10 Concentration −6.0): 101%
- Percent Growth (NCI/ADR-RES; Log10 Concentration −7.0): 99%
- Percent Growth (NCI/ADR-RES; Log10 Concentration −8.0): 100%
- Percent Growth (U251; Log10 Concentration −4.0): −98%
- Percent Growth (U251; Log10 Concentration −5.0): 91%
- Percent Growth (U251; Log10 Concentration −6.0): 94%
- Percent Growth (U251; Log10 Concentration −7.0): 96%
- Percent Growth (U251; Log10 Concentration −8.0): 94%
- Percent Growth (OVCAR-8; Log10 Concentration −4.0): −72%
- Percent Growth (OVCAR-8; Log10 Concentration −5.0): 46%
- Percent Growth (OVCAR-8; Log10 Concentration −6.0): 103%
- Percent Growth (OVCAR-8; Log10 Concentration −7.0): 96%
- Percent Growth (OVCAR-8; Log10 Concentration −8.0): 99%
- Percent Growth (MDA-MB-435; Log10 Concentration −4.0): −75%
- Percent Growth (MDA-MB-435; Log10 Concentration −5.0): 22%
- Percent Growth (MDA-MB-435; Log10 Concentration −6.0): 86%
- Percent Growth (MDA-MB-435; Log10 Concentration −7.0): 89%
- Percent Growth (MDA-MB-435; Log10 Concentration −8.0): 96%
- Percent Growth (NCI-H522; Log10 Concentration −4.0): −78%
- Percent Growth (NCI-H522; Log10 Concentration −5.0): −82%
- Percent Growth (NCI-H522; Log10 Concentration −6.0): 54%
- Percent Growth (NCI-H522; Log10 Concentration −7.0): 86%
- Percent Growth (NCI-H522; Log10 Concentration −8.0): 86%
- Percent Growth (DU-145; Log10 Concentration −4.0): −99%
- Percent Growth (DU-145; Log10 Concentration −5.0): 17%
- Percent Growth (DU-145; Log10 Concentration −6.0): 86%
- Percent Growth (DU-145; Log10 Concentration −7.0): 105%
- Percent Growth (DU-145; Log10 Concentration −8.0): 105%
- Percent Growth (SW-620; Log10 Concentration −4.0): −77%
- Percent Growth (SW-620; Log10 Concentration −5.0): 6%
- Percent Growth (SW-620; Log10 Concentration −6.0): 77%
- Percent Growth (SW-620; Log10 Concentration −7.0): 101%
- Percent Growth (SW-620; Log10 Concentration −8.0): 100%
- Percent Growth (MOLT-4; Log10 Concentration −4.0): −45%
- Percent Growth (MOLT-4; Log10 Concentration −5.0): 23%
- Percent Growth (MOLT-4; Log10 Concentration −6.0): 92%
- Percent Growth (MOLT-4; Log10 Concentration −7.0): 104%
- Percent Growth (MOLT-4; Log10 Concentration −8.0): 105%
- Percent Growth (UACC-62; Log10 Concentration −4.0): −95%
- Percent Growth (UACC-62; Log10 Concentration −5.0): 39%
- Percent Growth (UACC-62; Log10 Concentration −6.0): 88%
- Percent Growth (UACC-62; Log10 Concentration −7.0): 95%
- Percent Growth (UACC-62; Log10 Concentration −8.0): 94%
- Percent Growth (NCI-H460; Log10 Concentration −4.0): −56%
- Percent Growth (NCI-H460; Log10 Concentration −5.0): 80%
- Percent Growth (NCI-H460; Log10 Concentration −6.0): 98%
- Percent Growth (NCI-H460; Log10 Concentration −7.0): 101%
- Percent Growth (NCI-H460; Log10 Concentration −8.0): 102%
- Percent Growth (BT-549; Log10 Concentration −4.0): −99%
- Percent Growth (BT-549; Log10 Concentration −5.0): 37%
- Percent Growth (BT-549; Log10 Concentration −6.0): 92%
- Percent Growth (BT-549; Log10 Concentration −7.0): 85%
- Percent Growth (BT-549; Log10 Concentration −8.0): 94%
- Percent Growth (HOP-92; Log10 Concentration −4.0): −93%
- Percent Growth (HOP-92; Log10 Concentration −5.0): −9%
- Percent Growth (HOP-92; Log10 Concentration −6.0): 84%
- Percent Growth (HOP-92; Log10 Concentration −7.0): 90%
- Percent Growth (HOP-92; Log10 Concentration −8.0): 93%
- Percent Growth (NCI-H23; Log10 Concentration −4.0): −59%
- Percent Growth (NCI-H23; Log10 Concentration −5.0): 64%
- Percent Growth (NCI-H23; Log10 Concentration −6.0): 98%
- Percent Growth (NCI-H23; Log10 Concentration −7.0): 95%
- Percent Growth (NCI-H23; Log10 Concentration −8.0): 94%
- Percent Growth (NCI-H226; Log10 Concentration −4.0): −56%
- Percent Growth (NCI-H226; Log10 Concentration −5.0): 43%
- Percent Growth (NCI-H226; Log10 Concentration −6.0): 87%
- Percent Growth (NCI-H226; Log10 Concentration −7.0): 92%
- Percent Growth (NCI-H226; Log10 Concentration −8.0): 94%
- Percent Growth (OVCAR-4; Log10 Concentration −4.0): −68%
- Percent Growth (OVCAR-4; Log10 Concentration −5.0): 25%
- Percent Growth (OVCAR-4; Log10 Concentration −6.0): 83%
- Percent Growth (OVCAR-4; Log10 Concentration −7.0): 89%
- Percent Growth (OVCAR-4; Log10 Concentration −8.0): 99%
- Percent Growth (ACHN; Log10 Concentration −4.0): −91%
- Percent Growth (ACHN; Log10 Concentration −5.0): −8%
- Percent Growth (ACHN; Log10 Concentration −6.0): 86%
- Percent Growth (ACHN; Log10 Concentration −7.0): 99%
- Percent Growth (ACHN; Log10 Concentration −8.0): 103%
- Percent Growth (HCT-15; Log10 Concentration −4.0): −90%
- Percent Growth (HCT-15; Log10 Concentration −5.0): −16%
- Percent Growth (HCT-15; Log10 Concentration −6.0): 77%
- Percent Growth (HCT-15; Log10 Concentration −7.0): 92%
- Percent Growth (HCT-15; Log10 Concentration −8.0): 99%
- Percent Growth (CAKI-1; Log10 Concentration −4.0): −100%
- Percent Growth (CAKI-1; Log10 Concentration −5.0): 21%
- Percent Growth (CAKI-1; Log10 Concentration −6.0): 73%
- Percent Growth (CAKI-1; Log10 Concentration −7.0): 87%
- Percent Growth (CAKI-1; Log10 Concentration −8.0): 93%
- Percent Growth (IGROV1; Log10 Concentration −4.0): −59%
- Percent Growth (IGROV1; Log10 Concentration −5.0): 81%
- Percent Growth (IGROV1; Log10 Concentration −6.0): 109%
- Percent Growth (IGROV1; Log10 Concentration −7.0): 104%
- Percent Growth (IGROV1; Log10 Concentration −8.0): 103%
- Percent Growth (SK-OV-3; Log10 Concentration −4.0): −27%
- Percent Growth (SK-OV-3; Log10 Concentration −5.0): 92%
- Percent Growth (SK-OV-3; Log10 Concentration −6.0): 91%
- Percent Growth (SK-OV-3; Log10 Concentration −7.0): 101%
- Percent Growth (SK-OV-3; Log10 Concentration −8.0): 99%

Source: patent US9469650B2, “Melampomagnolide B derivatives” (BOARD OF TRUSTEES OF THE UNIVERSITY OF ARKANSAS, priority 2013, dated 2016)
